{
  "source": "paper PMC7862700",
  "note": "The entries are a selection whose mix differs from that of the whole data set. At the low end of the ranking the order means little.",
  "data": [
    {"biological_target": "T1, ELK3 (UniProt P41970)", "T1 sequence": "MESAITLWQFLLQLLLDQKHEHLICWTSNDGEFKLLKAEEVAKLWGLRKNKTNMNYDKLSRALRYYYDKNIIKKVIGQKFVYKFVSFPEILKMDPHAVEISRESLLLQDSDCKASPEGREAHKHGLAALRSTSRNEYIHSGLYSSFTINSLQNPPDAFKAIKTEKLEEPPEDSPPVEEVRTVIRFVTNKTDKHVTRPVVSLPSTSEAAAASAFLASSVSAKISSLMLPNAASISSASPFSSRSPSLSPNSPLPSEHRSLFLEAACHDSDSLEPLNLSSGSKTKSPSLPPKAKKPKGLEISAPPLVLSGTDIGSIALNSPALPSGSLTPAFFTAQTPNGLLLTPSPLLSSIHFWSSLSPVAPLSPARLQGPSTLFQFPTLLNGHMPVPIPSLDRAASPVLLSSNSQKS", "assay": "DAPPL (digital affinity profiling via proximity ligation, sequencing)", "details": "10 mM Tris-HCl pH 7.5, 50 mM NaCl, 1 mM DTT, 4% glycerol, room temperature, 30 min; GST-TFs on glutathione beads, 16-mer random dsDNA library, 0.1% …; high values mean tight binding; double strand, one strand shown; scale: fold enrichment (6-mer frequency, TF over GST control)", "values": [
      {"sequence": "CATCAA", "binding signal": 1.07},
      {"sequence": "TCGAGT", "binding signal": 0.936},
      {"sequence": "GACTGC", "binding signal": 0.913},
      {"sequence": "ATCACG", "binding signal": 0.955},
      {"sequence": "GATTGC", "binding signal": 0.923},
      {"sequence": "AAGCCC", "binding signal": 0.962},
      {"sequence": "CACCTG", "binding signal": 0.949},
      {"sequence": "GCCCGG", "binding signal": 0.926},
      {"sequence": "TCGGCT", "binding signal": 0.822},
      {"sequence": "GACCGC", "binding signal": 0.859},
      {"sequence": "GCGTAT", "binding signal": 0.857},
      {"sequence": "GAATGG", "binding signal": 0.88},
      {"sequence": "CAAAAG", "binding signal": 0.937}
    ]},
    {"biological_target": "T2, SPIC (UniProt Q8N5J4)", "T2 sequence": "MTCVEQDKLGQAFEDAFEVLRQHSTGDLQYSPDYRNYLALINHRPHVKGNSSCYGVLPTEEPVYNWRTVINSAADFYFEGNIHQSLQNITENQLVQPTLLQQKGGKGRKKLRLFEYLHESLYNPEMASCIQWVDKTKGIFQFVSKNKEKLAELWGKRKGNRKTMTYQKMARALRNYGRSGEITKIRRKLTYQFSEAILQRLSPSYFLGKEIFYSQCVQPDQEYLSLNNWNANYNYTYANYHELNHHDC", "assay": "DAPPL (digital affinity profiling via proximity ligation, sequencing)", "details": "10 mM Tris-HCl pH 7.5, 50 mM NaCl, 1 mM DTT, 4% glycerol, room temperature, 30 min; GST-TFs on glutathione beads, 16-mer random dsDNA library, 0.1% …; high values mean tight binding; double strand, one strand shown; scale: fold enrichment (6-mer frequency, TF over GST control)", "values": [
      {"sequence": "AGCTTA", "binding signal": 1.12},
      {"sequence": "ACCACG", "binding signal": 1.08},
      {"sequence": "CATCAA", "binding signal": 0.924},
      {"sequence": "TCGAGT", "binding signal": 0.888},
      {"sequence": "GACTGC", "binding signal": 0.98},
      {"sequence": "GAAAAT", "binding signal": 1.09},
      {"sequence": "TAGACA", "binding signal": 0.918},
      {"sequence": "TTCCCG", "binding signal": 1.91},
      {"sequence": "CCCCCC", "binding signal": 0.977},
      {"sequence": "ACTGAA", "binding signal": 1.31},
      {"sequence": "GATGTA", "binding signal": 1.12},
      {"sequence": "ATCACG", "binding signal": 1.04},
      {"sequence": "ACAGCA", "binding signal": 0.969},
      {"sequence": "AGAATG", "binding signal": 0.974},
      {"sequence": "TTCCGG", "binding signal": 5.6},
      {"sequence": "GATTGC", "binding signal": 0.996},
      {"sequence": "GGTGGT", "binding signal": 0.958},
      {"sequence": "GTCTAT", "binding signal": 1.18},
      {"sequence": "TCCCCG", "binding signal": 1.04},
      {"sequence": "TTCTTG", "binding signal": 1.31},
      {"sequence": "AACGCA", "binding signal": 1.02},
      {"sequence": "ATGGGG", "binding signal": 1.16},
      {"sequence": "AAGCCC", "binding signal": 0.961},
      {"sequence": "CACCTG", "binding signal": 0.923},
      {"sequence": "CATGGG", "binding signal": 1.05},
      {"sequence": "GGTCTG", "binding signal": 0.764},
      {"sequence": "GCAAAC", "binding signal": 0.887},
      {"sequence": "CTATAG", "binding signal": 0.976},
      {"sequence": "GATTAA", "binding signal": 0.959},
      {"sequence": "GCCCGG", "binding signal": 0.936},
      {"sequence": "TCGGCT", "binding signal": 0.961},
      {"sequence": "GACCGC", "binding signal": 0.931},
      {"sequence": "ACGATT", "binding signal": 1.39},
      {"sequence": "ATGTGC", "binding signal": 1.17},
      {"sequence": "GCGTAT", "binding signal": 1.07},
      {"sequence": "CGCTAA", "binding signal": 0.999},
      {"sequence": "AACGAT", "binding signal": 1.19},
      {"sequence": "GAATGG", "binding signal": 0.994},
      {"sequence": "CAAAAG", "binding signal": 0.975}
    ]},
    {"biological_target": "T3, ETS2 (UniProt P15036)", "T3 sequence": "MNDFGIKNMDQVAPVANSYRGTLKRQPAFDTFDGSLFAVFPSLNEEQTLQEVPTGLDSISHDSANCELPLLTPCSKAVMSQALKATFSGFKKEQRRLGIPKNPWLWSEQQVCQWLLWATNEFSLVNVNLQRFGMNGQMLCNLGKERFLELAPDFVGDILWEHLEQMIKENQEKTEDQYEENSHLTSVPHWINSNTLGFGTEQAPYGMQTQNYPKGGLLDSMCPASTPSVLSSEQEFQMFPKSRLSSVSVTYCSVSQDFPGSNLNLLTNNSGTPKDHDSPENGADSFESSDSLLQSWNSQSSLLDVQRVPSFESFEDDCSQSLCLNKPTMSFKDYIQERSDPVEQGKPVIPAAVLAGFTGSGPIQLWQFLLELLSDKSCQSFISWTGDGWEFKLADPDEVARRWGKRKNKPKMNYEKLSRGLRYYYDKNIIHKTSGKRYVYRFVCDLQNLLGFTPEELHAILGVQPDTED", "assay": "DAPPL (digital affinity profiling via proximity ligation, sequencing)", "details": "10 mM Tris-HCl pH 7.5, 50 mM NaCl, 1 mM DTT, 4% glycerol, room temperature, 30 min; GST-TFs on glutathione beads, 16-mer random dsDNA library, 0.1% …; high values mean tight binding; double strand, one strand shown; scale: fold enrichment (6-mer frequency, TF over GST control)", "values": [
      {"sequence": "AGCTTA", "binding signal": 1.15},
      {"sequence": "ACCACG", "binding signal": 0.959},
      {"sequence": "CATCAA", "binding signal": 0.961},
      {"sequence": "TCGAGT", "binding signal": 0.931},
      {"sequence": "GACTGC", "binding signal": 0.987},
      {"sequence": "GAAAAT", "binding signal": 1.13},
      {"sequence": "TAGACA", "binding signal": 0.959},
      {"sequence": "TTCCCG", "binding signal": 1.97},
      {"sequence": "CCCCCC", "binding signal": 1.1},
      {"sequence": "ACTGAA", "binding signal": 1.23},
      {"sequence": "GATGTA", "binding signal": 1.49},
      {"sequence": "ATCACG", "binding signal": 0.927},
      {"sequence": "ACAGCA", "binding signal": 1.09},
      {"sequence": "AGAATG", "binding signal": 0.917},
      {"sequence": "TTCCGG", "binding signal": 6},
      {"sequence": "GATTGC", "binding signal": 0.945},
      {"sequence": "GGTGGT", "binding signal": 0.99},
      {"sequence": "GTCTAT", "binding signal": 1.01},
      {"sequence": "TCCCCG", "binding signal": 1.11},
      {"sequence": "TTCTTG", "binding signal": 1.39},
      {"sequence": "AACGCA", "binding signal": 1.1},
      {"sequence": "ATGGGG", "binding signal": 0.984},
      {"sequence": "AAGCCC", "binding signal": 0.974},
      {"sequence": "CACCTG", "binding signal": 0.987},
      {"sequence": "CATGGG", "binding signal": 0.973},
      {"sequence": "GGTCTG", "binding signal": 0.986},
      {"sequence": "GCAAAC", "binding signal": 0.993},
      {"sequence": "CTATAG", "binding signal": 1},
      {"sequence": "GATTAA", "binding signal": 1.01},
      {"sequence": "GCCCGG", "binding signal": 0.974},
      {"sequence": "TCGGCT", "binding signal": 0.9},
      {"sequence": "GACCGC", "binding signal": 0.878},
      {"sequence": "ACGATT", "binding signal": 1.26},
      {"sequence": "ATGTGC", "binding signal": 1.1},
      {"sequence": "GCGTAT", "binding signal": 0.91},
      {"sequence": "CGCTAA", "binding signal": 0.901},
      {"sequence": "AACGAT", "binding signal": 1.22},
      {"sequence": "GAATGG", "binding signal": 1},
      {"sequence": "CAAAAG", "binding signal": 1.04}
    ]}
  ]
}
